The supplement of paper PMC4256282, “Profound Activity of the Anti-cancer Drug Bortezomib against Echinococcus multilocularis Metacestodes Identifies the Proteasome as a Novel Drug Target for Cestodes” (PLoS Neglected Tropical Diseases, 2014)
Counter-ions that a name gives are not always drawn. The list shows a part of the results. Most values come without repeats; read them as rough.

Test system: Echinococcus multilocularis metacestodes
Test: vesicle damage (PGI release) relative to positive control DB1127 at 20 µM, DMSO subtracted; higher = more parasite damage
Conditions: treatment time 5 days

COC(=O)[C@@H]1CC2=CC(=O)CC[C@]2(C)[C@@]23O[C@@H]2C[C@@]2(C)[C@@H](CC[C@@]24CCC(=O)O4)[C@H]13 [Eplerenone]
vesicle damage: -2.31%

NC(=O)Cc1cccc(C(=O)c2ccccc2)c1N [Nepafenac]
vesicle damage: -1.69%

NC(CO)C(=O)NNCc1ccc(O)c(O)c1O (stereo not drawn) [Benserazide hydrochloride]
vesicle damage: 4.48%

CC(C)Cc1ccc(C(C)C(=O)O)cc1 (stereo not drawn) [Ibuprofen]
vesicle damage: -1.11%

COc1c(C)c2c(c(O)c1C/C=C(\C)CCC(=O)O)C(=O)OC2 [Mycophenolic acid]
vesicle damage: 1.82%

COc1ccc(Cl)cc1C(=O)NCCc1ccc(S(=O)(=O)NC(=O)NC2CCCCC2)cc1 [Glyburide]
vesicle damage: -11%

O=C1[C@H](CC[C@H](O)c2ccc(F)cc2)[C@@H](c2ccc(O)cc2)N1c1ccc(F)cc1 [Ezetimibe]
vesicle damage: -2.19%

Cc1cc2nc3c(=O)[nH]c(=O)nc-3n(C[C@H](O)[C@H](O)[C@H](O)CO)c2cc1C [Riboflavin]
vesicle damage: -10.9%

CCOC(=O)[C@H](CCc1ccccc1)N[C@H]1CCc2ccccc2N(CC(=O)O)C1=O [Benazepril hydrochloride]
vesicle damage: 1.03%

Cn1ccnc1S [Methimazole]
vesicle damage: -2.73%

CN1CCN(c2c(F)cc3c(=O)c(C(=O)O)cn(CCF)c3c2F)CC1 [Fleroxacin]
vesicle damage: 0.993%

CC[N+](CC)(CC)CCOc1cccc(OCC[N+](CC)(CC)CC)c1OCC[N+](CC)(CC)CC [Gallamine triethiodide]
vesicle damage: 2.67%

Cc1c(OCC(F)(F)F)ccnc1C[S+]([O-])c1nc2ccccc2[nH]1 (stereo not drawn) [Lansoprazole]
vesicle damage: -1.34%
